Test [1] concerns the target T1, trichothiodystrophy nonphotosensitive 1 (TTDN1), fluorescein-labeled (UniProt Q8TAP9).
T1 sequence (chain, 5-iodoacetamido-fluorescein label on the cysteine residue at the C terminus): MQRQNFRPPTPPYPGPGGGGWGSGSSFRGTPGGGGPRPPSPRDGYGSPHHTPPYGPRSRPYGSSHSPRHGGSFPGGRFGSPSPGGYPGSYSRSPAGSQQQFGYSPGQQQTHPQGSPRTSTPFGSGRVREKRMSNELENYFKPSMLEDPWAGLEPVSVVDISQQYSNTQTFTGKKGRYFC
As to the kind of experiment: fluorescence polarisation; fluorescein-labeled TTDN1 fixed at 2.5 nM; unlabeled Dbr1 titrated (3-fold dilution from 2.8 uM to 1 nM) or Drn1 at 225 nM; SEC buffer; black 96-well half-area plates; both purified. A general note: Polarisation of emitted light reports the rotation of a fluorescent probe.

The target in test [2] is T2, human RNA lariat debranching enzyme Dbr1, full-length (1-544) (human) (UniProt Q9UK59).
T2 sequence: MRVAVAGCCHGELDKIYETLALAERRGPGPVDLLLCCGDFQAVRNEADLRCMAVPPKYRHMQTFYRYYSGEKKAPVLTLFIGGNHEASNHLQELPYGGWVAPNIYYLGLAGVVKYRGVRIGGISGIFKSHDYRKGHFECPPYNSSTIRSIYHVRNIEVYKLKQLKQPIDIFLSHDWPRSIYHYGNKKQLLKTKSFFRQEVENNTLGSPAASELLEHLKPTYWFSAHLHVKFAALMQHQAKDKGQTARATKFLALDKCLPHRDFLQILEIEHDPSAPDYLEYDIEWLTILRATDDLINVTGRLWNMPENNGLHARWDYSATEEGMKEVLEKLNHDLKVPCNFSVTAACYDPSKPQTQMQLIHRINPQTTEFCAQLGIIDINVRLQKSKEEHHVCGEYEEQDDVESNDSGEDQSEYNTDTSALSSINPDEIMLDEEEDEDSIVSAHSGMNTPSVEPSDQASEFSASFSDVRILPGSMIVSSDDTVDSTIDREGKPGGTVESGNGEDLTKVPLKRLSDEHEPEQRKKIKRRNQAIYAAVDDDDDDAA
As to the kind of experiment: SEC; Superdex 200-Increase 10/300 in SEC buffer (50 mM Tris pH 8, 100 mM NaCl, 1 mM TCEP); about 100 ug Dbr1 injected, Drn1 added at an equimolar ratio; peak fraction on a Coomassie-stained denaturing gel; both purified. In general terms: SEC sorts molecules by how far they enter the pores of the column.

These are yes or no findings as the source states them, for the method shown. Some binding calls cover weakened binding; strength is not graded here.

B1: Drn1 (human Drn1 homolog, Cwf19-L1) (natural protein, UniProt Q69YN2 1-538, looked up)
chain: MAQKPLRLLACGDVEGKFDILFNRVQAIQKKSGNFDLLLCVGNFFGSTQDAEWEEYKTGIKKAPIQTYVLGANNQETVKYFQDADGCELAENITYLGRKGIFTGSSGLQIVYLSGTESLNEPVPGYSFSPKDVSSLRMMLCTTSQFKGVDILLTSPWPKCVGNFGNSSGEVDTKKCGSALVSSLATGLKPRYHFAALEKTYYERLPYRNHIILQENAQHATRFIALANVGNPEKKKYLYAFSIVPMKLMDAAELVKQPPDVTENPYRKSGQEASIGKQILAPVEESACQFFFDLNEKQGRKRSSTGRDSKSSPHPKQPRKPPQPPGPCWFCLASPEVEKHLVVNIGTHCYLALAKGGLSDDHVLILPIGHYQSVVELSAEVVEEVEKYKATLRRFFKSRGKWCVVFERNYKSHHLQLQVIPVPISCSTTDDIKDAFITQAQEQQIELLEIPEHSDIKQIAQPGAAYFYVELDTGEKLFHRIKKNFPLQFGREVLASEAILNVPDKSDWRQCQISKEDEETLARRFRKDFEPYDFTLDD
notes: human Drn1 homolog (Cwf19-L1); cDNA purchased from Genecopoeia, subcloned into a modified pET vector; source: E. coli BL21, purified (Ni column, Superdex-200)
With B1, the binding result in test [1] is given as “no binding (tested: 225 nM)”; in test [2], “binds”.

These data come from article PMC10470207, “Activation of human RNA lariat debranching enzyme Dbr1 by binding protein TTDN1 occurs though an intrinsically disordered C-terminal domain” (The Journal of Biological Chemistry, 2023).
